According to PMC7210767:

What was measured:
[1] = tested on: GAME9-135A (high-SGA allele); assay: EMSA; conditions: poly(dI-dC), 2.5% glycerol, 50 ng/ul poly(dI-dC)), room temperature, 30 min, 6% native PAGE, pH not stated, recombinant protein, protein details: MBP
[2] = tested on: GAME9-135V (low-SGA allele) (Solanum lycopersicum (AC)); assay: EMSA; conditions: poly(dI-dC), text says not able to bind, also summarised as weak binding; 2.5% glycerol, 50 ng/ul poly(dI-dC)), room temperature, 30 min; 6% native PAGE; pH not stated; recombinant protein; protein details: MBP; label: 5'-FAM on sense strand

Row | Sequence | binding result [1] | binding result ([1]; label: 5'-FAM on sense strand) | binding result [2]
1 | CACTCAACACATCCATTCAAAAAACACACCCCACTCCCAGCA (double strand) [GAME17 promoter mutant probe (mProbe)] | no binding |  | 
2 | CACTCAACACATCCATTCGCCCCCCACACCCCACTCCCAGCA (double strand) [GAME17 promoter GC-rich probe (WT)] |  | binds | no binding

For at least one entry, the source does not settle the construct or the ends of the probe. A negative result means that nothing was seen under these conditions.
